Data: PubChem BioAssay AID1347076 (National Center for Advancing Translational Sciences (NCATS), 2019)
Among all 400,000 compounds or so, about 13,000 (3.2%) were called active. This list was built around the results that the source calls inconclusive (neither active nor inactive); the mix of calls is not that of the screen. Calls follow the shape of the dose curve; as a rule, active = well fitted cell-killing curve with a large enough effect; inconclusive = small, poorly fitted or top-dose-only effect, or effect the other way; inactive = flat fitted curve, though single readings scatter. Where the call is inconclusive, the potency comes from a doubtful curve fit. The source holds several records for some structures; these can differ, active in one and inactive in another.

assay: qHTS assay for MDR1-selective chemotherapeutics: Primary screen using the drug-selected MDR subline cells KB-V1; conditions: KB-V1 MDR cells viability, CellTiter-Glo, 72 h; activity change, negative = cytotoxicity: at 46.1 µM (top of the series); also: nearly all actives have a fitted effect of over 60% in size
Summary of the method: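 Cytotoxicity via CellTiter-Glo luminescence after 72 h compound exposure at 37 degrees C. Cells: drug-selected KB-V1 line, DMEM phenol-red free plus 10% FBS. Compounds tested at multiple concentrations; normalized data fitted to concentration-effect curves.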
% is scaled to controls: 0 for no effect and ±100 for the full control effect; potency is read from the fitted curve at half-maximal effect.

SMILES | Potency | activity change, negative = cytotoxicity
CCc1ccc(N2C(=O)NC(=O)/C(=C\c3cccn3CCOc3ccc(C(C)C)cc3)C2=O)cc1 | inconclusive: 29.1 µM [cytotoxic, partial curve, poor fit] | –
O=C(c1cc(-c2ccncc2)nc2ccccc12)N1CCC2(CC1)OCCO2 | inconclusive: 6.51 µM [cytotoxic, partial curve] | –
COC(=O)C1=C(c2cccc(C#N)c2)C[C@@H]2CC[C@H]1N2C(=O)N1CCC(O)CC1 | – | inactive: 15.6%
CCOC(=O)[C@]12Cc3cc(Cl)ccc3[C@H]1N(CC(=O)OC)C(=O)c1ccccc12 | active: 11.6 µM | –
Cc1ccc(C)c(Cn2c(C(=O)O)c(C=O)c3ccccc32)c1 | – | inactive: 0%
Cc1cc(-c2ccc(N)c(C)c2)ccc1N | – | inactive: -4.88%
N#CCCn1cc(C(=O)Nc2ccccc2Br)c(-c2ccc3c(c2)OCCO3)n1 | inconclusive: 4.61 µM [cytotoxic, partial curve] | –
CN(C)C(=S)SSC(=S)N(C)C | – | inactive: 3.46%
Cc1ccccc1OCCN=Cc1c(O)n(C)c(=O)n(C)c1=O | inconclusive: 29.1 µM [cytotoxic, single point] | –
CCOC(=O)[C@]12Cc3c(cc(OC)c(OC)c3OC)[C@H]1N(C(C)C)C(=O)c1cc(OC)ccc12 | active: 2.59 µM | –
O=C1C2CCCC1C(N1CCCC1)CC2 (stereo not given) | inconclusive: 29.1 µM [cytotoxic, single point] | –
COC(=O)C1=C(c2ccc(F)cc2OCc2ccccc2)C[C@@H]2CC[C@H]1N2C(=O)NCc1cc(C)oc1C(F)(F)F | inconclusive: 16.4 µM [cytotoxic, single point] | –
CC(=O)Nc1ccc(OCCF)cc1 | inconclusive: 11.6 µM [cytotoxic, single point] | –
S=C(NCCc1ccccc1)N1Cc2cc(-c3ccccc3)ccc2-n2nncc2C1 | inconclusive: 23.1 µM [cytotoxic, single point] | –
O=C(c1ccc2c(c1)OCO2)C1CCCN(Cc2c(F)cccc2Cl)C1 (stereo not given) | – | inactive: -4.69%
CN1[C@@H]2CC[C@H]1CC(OC1c3ccccc3CCc3ccccc31)C2 (stereo not given in full) | inconclusive: 10.3 µM [cytotoxic, partial curve] | –
CN1C(=O)N(C)C(=O)C2(Cc3cc(NC(=O)c4ccc(F)cc4)ccc3N3CCCC32)C1=O (stereo not given) | inconclusive: 16.4 µM [rising, partial curve] | –
C=CCN1C(=O)NC(=O)/C(=C\c2ccc(-c3ccccc3[N+](=O)[O-])o2)C1=O | – | inactive: -3.79%

2 entries from above, with tabs.
SMILES	Potency	activity change, negative = cytotoxicity
O=C(c1cc(-c2ccncc2)nc2ccccc12)N1CCC2(CC1)OCCO2	inconclusive: 6.51 µM [cytotoxic, partial curve]	–
COC(=O)C1=C(c2cccc(C#N)c2)C[C@@H]2CC[C@H]1N2C(=O)N1CCC(O)CC1	–	inactive: 15.6%

(listing goes on)

SMILES | Potency | activity change, negative = cytotoxicity
O=c1c2ccccc2nc(CSc2ncnc3nc[nH]c23)n1-c1ccc(Cl)c(Cl)c1 | – | inactive: 7.84%
O=c1[nH]c(=O)n(CCC2=CCCCC2)c(O)c1/C=N/Nc1ccccc1 | inconclusive: 29.1 µM [cytotoxic, partial curve] | –
COC(=O)C1=C(c2cccc(OCc3ccccc3)c2)C[C@@H]2CC[C@H]1N2C(=O)NCCc1ccc(F)cc1 | inconclusive: 29.1 µM [cytotoxic, single point] | –
O=C(NCCCN1CC1)Nc1cccc2ccccc12 | inconclusive: 29.1 µM [cytotoxic, single point] | –
C=CCN1C[C@@H](C)N(C(c2ccc(C(=O)N(CC)CC)cc2)c2cccc(OC)c2)C[C@@H]1C (stereo not given in full) | – | inactive: -18.9%
Cn1nc(-c2ccc(OCC(=O)N3CCN(Cc4ccccc4)CC3)cc2)c2ccccc2c1=O | active: 0.651 µM | –
CCCCCCn1c(=O)c(C(=O)Nc2cnccn2)c(O)c2ccccc21 | active: 1.3 µM | –
C=CCN1CC[C@]23c4c5ccc(O)c4OC2C(=O)CC[C@@]3(O)C1C5 (stereo not given in full) | – | inactive: 3.5%
COC(=O)C1=C(c2cccc(OCc3ccccc3)c2)C[C@@H]2CC[C@H]1N2C(=O)NCc1ccccc1OC | – | inactive: -20.9%
COC(=O)C(Cc1ccc(N(CCCl)CCCl)cc1)N=Cc1ccccc1O (stereo not given) | – | inactive: -1.6%
C=CCn1c(O)c(C=Nc2ccc(OC)cc2C)c(=O)[nH]c1=O | inconclusive: 7.31 µM [cytotoxic, full curve] | –
C=CCN1C(=O)/C(=C/c2ccc(N3CCOCC3)o2)C(=O)NC1=S | – | inactive: 0.861%
O=c1[nH]c2ccccc2n1C1CCN(Cc2ccc(-c3nc4ccccc4nc3-c3ccccc3)cc2)CC1 | active: 23.1 µM | –
Cc1ccc(N2C(=O)NC(=O)/C(=C\c3ccoc3)C2=O)cc1 | – | inactive: 11.2%
ClCCOCOCCCl | – | inactive: 1.5%
CN1CCN(c2ccc([N+](=O)[O-])c(N3CCCCC3)c2)CC1 | – | inactive: -10.6%
Cc1ccc(-c2nc3ccccc3c(=O)n2-c2cccc(C)n2)cc1 | – | inactive: -6.66%
